Results as given in PubChem BioAssay AID256 (DTP/NCI, 2004).
The list shows only some results of the screen, not a fair sample: its compounds were picked by chemical class. Other doses and runs of a compound may be missing. T/C gives the treated animals as a percentage of the vehicle group. Some entries give survivors of the animals treated and no T/C: the source files T/C as zero there, which appears to mark a toxic dose or a test without result, not a measured value. Survivors were counted at the toxicity check, usually on the fifth day, unless a day is given; later deaths do not show. Schedules are NCI's codes, read here as Q, the interval in days (D) or hours (H), X, the number of doses. Where survival is the endpoint, this PubChem deposit counts one and a half times the control or more as active, and values a quarter to a half above the control carry no call in these data; other NCI protocols may use other cut-offs. Some entries show no survivor count and are marked so; the dose need not have been tolerated. Some T/C values are followed by the survivors on the day toxicity was checked, most often the fifth; where neither a count nor a note follows, no animal had died by that day.

Test system: CD2F1 mice, L1210 leukemia ip, survival T/C
Experiment: NCI In Vivo Anticancer Drug Screen. Data for tumor model L1210 Leukemia (intraperitoneal) in CD2F1 (CDF1) mice
Details: T/C endpoint: mean survival time, higher T/C = longer survival
Experimental: The antitumor activity of compounds was measured in mice bearing transplantable tumors. Survival or tumor size were measured and the results are expressed as the measurement made in the treated group (T) divided by the measurement made in the vehicle treated control group (C). The tumor model used in this assay is L1210 Leukemia (intraperitoneal) in CD2F1 (CDF1) mice

[1] = dose: 6.25 mg/kg/injection, schedule: Q01DX009 (ip), vehicle: Klucel (hydroxypropylcellulose) (HPC)
[2] = dose: 12.5 mg/kg/injection, schedule: Q01DX009 (ip), vehicle: Klucel (hydroxypropylcellulose) (HPC)
[3] = dose: 25.0 mg/kg/injection, schedule: Q01DX009 (ip), vehicle: Klucel (hydroxypropylcellulose) (HPC)
[4] = dose: 50.0 mg/kg/injection, schedule: Q01DX009 (ip), vehicle: Klucel (hydroxypropylcellulose) (HPC)
[5] = dose: 100.0 mg/kg/injection, schedule: Q04DX003 (ip), vehicle: saline with Tween-80
[6] = dose: 200.0 mg/kg/injection, schedule: Q04DX003 (ip), vehicle: saline with Tween-80
[7] = dose: 400.0 mg/kg/injection, schedule: Q04DX003 (ip), vehicle: saline with Tween-80
[8] = dose: 100.0 mg/kg/injection, schedule: Q01DX001 (ip), vehicle: saline with Tween-80
[9] = dose: 200.0 mg/kg/injection, schedule: Q01DX001 (ip), vehicle: saline with Tween-80
[10] = dose: 400.0 mg/kg/injection, schedule: Q01DX001 (ip), vehicle: saline with Tween-80

`CCCNC(=O)c1ccc(N(CCCl)CCCl)cc1` was tested. Which T/C (dose: 3.12 mg/kg/injection, schedule: Q01DX009 (ip), vehicle: Klucel (hydroxypropylcellulose) (HPC)) did it give?
The T/C was 97 % of control.

What about the T/C [1] of the same compound?
The T/C was 105 % of control.

And the T/C [2]?
Its T/C is 103 % of control.

And the T/C [3]?
Its T/C is 107 % of control.

What about the T/C [4] of the same compound?
The T/C was 102 % of control.

What about the T/C (dose: 100.0 mg/kg/injection, schedule: Q01DX009 (ip), vehicle: Klucel (hydroxypropylcellulose) (HPC)) of the same compound?
Its T/C is 101 % of control.

And the T/C (dose: 200.0 mg/kg/injection, schedule: Q01DX009 (ip), vehicle: Klucel (hydroxypropylcellulose) (HPC))?
The T/C was 102 % of control [4 of 6 alive].

For `CC(C)=C(OP(C)(I)(N(C)C)N(C)C)C(C)(C)C(=O)N(C)C`, which T/C (dose: 75.0 mg/kg/injection, schedule: Q01DX001 (ip), vehicle: saline) is on record?
Its T/C is 103 % of control [survivor count not shown].

What about the T/C (dose: 150.0 mg/kg/injection, schedule: Q01DX001 (ip), vehicle: saline) of the same compound?
The T/C was 97 % of control [survivor count not shown].

With `O=C(OC1CN2CCC1CC2)c1ccccc1O` (stereo unspecified) as the compound, how does the T/C (dose: 6.25 mg/kg/injection, schedule: Q01DX009 (ip), vehicle: saline with Tween-80) read?
Its T/C is 97 % of control.

What about the T/C (dose: 12.5 mg/kg/injection, schedule: Q01DX009 (ip), vehicle: saline with Tween-80) of the same compound?
The T/C was 100 % of control.

And the T/C (dose: 25.0 mg/kg/injection, schedule: Q01DX009 (ip), vehicle: saline with Tween-80)?
The T/C was 100 % of control.

What about the survivor count [5] of the same compound?
Its survivor count is 2 of 6.

And the survivor count [6]?
The survivor count was 0 of 6.

And the survivor count [7]?
Its survivor count is 0 of 6.

With `CC(=O)c1cc(CN(C)C)oc1C.O=[N+]([O-])c1cc([N+](=O)[O-])c(O)c([N+](=O)[O-])c1` as the compound, how does the T/C (dose: 50.0 mg/kg/injection, schedule: Q04DX002 (ip), vehicle: saline with Tween-80) read?
Its T/C is 98 % of control [survivor count not shown].

And the T/C [8]?
Its T/C is 101 % of control [survivor count not shown].

What about the T/C (dose: 100.0 mg/kg/injection, schedule: Q04DX002 (ip), vehicle: saline with Tween-80) of the same compound?
Its T/C is 106 % of control [survivor count not shown].

And the T/C [9]?
Its T/C is 100 % of control [survivor count not shown].

And the T/C (dose: 200.0 mg/kg/injection, schedule: Q04DX002 (ip), vehicle: saline with Tween-80)?
Its T/C is 92 % of control [survivor count not shown].

What about the T/C [10] of the same compound?
The T/C was 100 % of control [survivor count not shown].

`CCCP(=O)(O)OCCOc1ccc(Cl)cc1Cl` was tested. Which T/C [5] did it give?
Its T/C is 99 % of control [survivor count not shown].

What about the T/C [6] of the same compound?
The T/C was 97 % of control [survivor count not shown].

`O=[N+]([O-])c1cc([N+](=O)[O-])c(O)c([N+](=O)[O-])c1.c1ccc(C2=c3ccc4c5c(ccc(c35)=N2)=C(c2ccccc2)N=4)cc1` was tested. Which T/C [5] did it give?
Its T/C is 100 % of control [survivor count not shown].

What does the source list for `Cc1ccc(Nc2c([N+](=O)[O-])cc([N+](=O)[O-])cc2[N+](=O)[O-])cc1`?
T/C [5]: 95 % of control [survivor count not shown]; T/C [6]: 91 % of control [survivor count not shown]; T/C [7]: 91 % of control [survivor count not shown]

What does the source list for `CCOP(=O)(NC1CCCCC1)OCC`?
T/C (dose: 50.0 mg/kg/injection, schedule: Q01DX001 (ip), vehicle: carboxymethylcellulose (CMC)): 100 % of control; T/C (dose: 100.0 mg/kg/injection, schedule: Q01DX001 (ip), vehicle: carboxymethylcellulose (CMC)): 100 % of control; T/C (dose: 200.0 mg/kg/injection, schedule: Q01DX001 (ip), vehicle: carboxymethylcellulose (CMC)): 100 % of control; T/C (dose: 400.0 mg/kg/injection, schedule: Q01DX001 (ip), vehicle: carboxymethylcellulose (CMC)): 100 % of control

`CN(C)C(=O)OCC[n+]1cccc(OC(=O)N(C)C)c1` was tested. Which T/C (dose: 0.25 mg/kg/injection, schedule: Q01DX009 (ip), vehicle: saline) did it give?
Its T/C is 98 % of control.

And the T/C (dose: 0.5 mg/kg/injection, schedule: Q01DX009 (ip), vehicle: saline)?
Its T/C is 104 % of control.

And the T/C (dose: 1.0 mg/kg/injection, schedule: Q01DX009 (ip), vehicle: saline)?
Its T/C is 100 % of control.

And the survivor count (dose: 5.0 mg/kg/injection, schedule: Q01DX009 (ip), vehicle: saline)?
The survivor count was 1 of 6.

And the survivor count (dose: 10.0 mg/kg/injection, schedule: Q01DX009 (ip), vehicle: saline)?
The survivor count was 0 of 6.

What about the survivor count (dose: 20.0 mg/kg/injection, schedule: Q01DX009 (ip), vehicle: saline) of the same compound?
The survivor count was 0 of 6.

How did the T/C (dose: 15.62 mg/kg/injection, schedule: Q01DX001 (ip), vehicle: DMSO) turn out when `O=CC1COP(=O)(N(CCCl)CCCl)N1` (stereo unspecified) was run?
The T/C was 104 % of control.

What about the T/C (dose: 31.25 mg/kg/injection, schedule: Q01DX001 (ip), vehicle: DMSO) of the same compound?
Its T/C is 95 % of control.

And the T/C (dose: 62.5 mg/kg/injection, schedule: Q01DX001 (ip), vehicle: DMSO)?
The T/C was 97 % of control.

What about the T/C (dose: 125.0 mg/kg/injection, schedule: Q01DX001 (ip), vehicle: DMSO) of the same compound?
Its T/C is 97 % of control.

And the T/C (dose: 250.0 mg/kg/injection, schedule: Q01DX001 (ip), vehicle: DMSO)?
Its T/C is 95 % of control.

And the T/C (dose: 500.0 mg/kg/injection, schedule: Q01DX001 (ip), vehicle: DMSO)?
The T/C was 98 % of control.

`O=P1(c2ccccc2)NC2CC(Cl)CCC2S1` (stereo unspecified) was tested. Which T/C (dose: 100.0 mg/kg/injection, schedule: Q04DX002 (ip), vehicle: other) did it give?
The T/C was 100 % of control.

What about the T/C (dose: 200.0 mg/kg/injection, schedule: Q04DX002 (ip), vehicle: other) of the same compound?
The T/C was 95 % of control.

What about the survivor count (dose: 400.0 mg/kg/injection, schedule: Q04DX002 (ip), vehicle: other) of the same compound?
The survivor count was 0 of 3.

Which results are given for `CCN(CC)[P+](c1ccc(OC)cc1OC)(N(CC)CC)N(CC)CC.F[P-](F)(F)(F)(F)F`?
T/C [1]: 109 % of control [5 of 6 alive]; T/C [2]: 91 % of control; T/C [3]: 89 % of control [4 of 6 alive]; survivor count [4]: 1 of 6

`COC(=O)/C(=C\c1ccccc1)CN1CCCCC1.O=[N+]([O-])c1cc([N+](=O)[O-])c(O)c([N+](=O)[O-])c1` was tested. Which T/C [8] did it give?
The T/C was 102 % of control [survivor count not shown].

And the T/C [9]?
The T/C was 98 % of control [survivor count not shown].

What about the T/C [10] of the same compound?
The T/C was 98 % of control [survivor count not shown].

Which T/C [5] does the source give for `Cc1cc([N+](=O)[O-])cc([N+](=O)[O-])c1OC(=O)CCC(=O)Oc1c(C)cc([N+](=O)[O-])cc1[N+](=O)[O-]` here?
Its T/C is 89 % of control.

And the T/C [6]?
Its T/C is 89 % of control.

What about the T/C [7] of the same compound?
Its T/C is 93 % of control.
